Test results from the supplement of paper PMC12889115.
The other results are listed elsewhere or left out. Values are raw readings; no control value is given beside them.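 Primary screen: polymyxin B was added at a level permeabilizing Salmonella outer membranes while sparing inner membranes. DMSO wells, both with and without polymyxin B, established maximum growth. Plate-to-plate variation meant each plate was ranked on its own, and the lowest-OD600 compounds were selected as hits.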

Tested on: Salmonella enterica serovar Typhimurium SL1344
Test: bacterial growth OD600 after 18 h with compound and polymyxin B; higher = more bacterial growth (less inhibition)
Settings: 50 µM, Mueller-Hinton broth

COc1ccc(CN2C[C@@H]3C[C@@H](c4ccc(F)cc4)N4CCC[C@@]34C2=O)cc1
bacterial growth OD600 (polymyxin B 0.75 µg/mL): 0.772

COc1ccc(CNCc2cccnc2Oc2ccc(C)nc2)c(F)c1
bacterial growth OD600 (polymyxin B 1 µg/mL): 1.1

COc1ccc(C(=O)N2CCc3onc(-c4ccc(Cl)cc4)c3C2)cc1
bacterial growth OD600 (polymyxin B 0.75 µg/mL): 0.42

COc1ccc(-c2noc(-c3ccc(NCCc4cscn4)nc3)n2)cc1
bacterial growth OD600 (polymyxin B 1 µg/mL): 0.887

CCC1CN(CCNC(=O)CC2CCCC2)Cc2cc(OC)ccc2O1 (centres undefined)
bacterial growth OD600 (polymyxin B 0.75 µg/mL): 0.89

CCOC(=O)C1CCCN(C2CCN(c3ccc(C(=O)NCCN4CCOCC4)cc3)CC2)C1 (centres undefined)
bacterial growth OD600 (polymyxin B 0.75 µg/mL): 0.996

COc1ccccc1CCNC1CCN(c2ccc(C(=O)N(C)C)cc2)CC1
bacterial growth OD600 (polymyxin B 0.75 µg/mL): 0.823

COCCO[C@H]1[C@H](NC(=O)C(C)C)c2ccccc2C12CCN(C(=O)c1cc(CC(C)C)on1)CC2
bacterial growth OD600 (polymyxin B 0.75 µg/mL): 0.885

Cc1ccnc(N2CCC(C3CCN(Cc4cccnc4)CC3)C2)n1 (centres undefined)
bacterial growth OD600 (polymyxin B 0.75 µg/mL): 0.801

Cn1cc(CCC(=O)NCc2cccnc2Oc2ccccc2F)cn1
bacterial growth OD600 (polymyxin B 0.75 µg/mL): 0.816

CN(Cc1ccon1)C(=O)C1(N2CCCCC2)Cc2ccccc2C1
bacterial growth OD600 (polymyxin B 0.75 µg/mL): 0.781

COC(=O)C1CCCCN1C(=O)c1c(OC)cc(=O)n2c1CCN(Cc1cc(C)c(C)cc1C)CC2 (centres undefined)
bacterial growth OD600 (polymyxin B 0.75 µg/mL): 0.808

CCN1CCN(C2(C(=O)N3CCC[C@H]3CO)Cc3ccccc3C2)CC1
bacterial growth OD600 (polymyxin B 0.75 µg/mL): 0.84

CN(CCC1CCOCC1)C(=O)c1cc(COc2ccccc2F)[nH]n1
bacterial growth OD600 (polymyxin B 0.75 µg/mL): 0.782

Cc1cnc(-n2ncc(C(=O)N(C)CC(O)c3ccccc3)c2C2CC2)nc1-c1cccs1 (centres undefined)
bacterial growth OD600 (polymyxin B 0.75 µg/mL): 0.892

O=C(NCCCN1CCCC(O)C1)c1ccc(OC2CCN(C(=O)C3CC3)CC2)cc1 (centres undefined)
bacterial growth OD600 (polymyxin B 1 µg/mL): 1.06

CO[C@H]1[C@H](NC(=O)Cc2ccccc2)c2ccccc2C12CCN(C(=O)COc1ccccc1)CC2
bacterial growth OD600 (polymyxin B 0.75 µg/mL): 0.792

CC[C@H](C)[C@H](NC1CCN(c2ccc(C(=O)N3CCN(CC)CC3)cc2)CC1)C(=O)OC
bacterial growth OD600 (polymyxin B 0.75 µg/mL): 0.762

CC(=O)c1ccc(-c2cc(F)cc3c2OC(CNC(=O)Cc2ccccc2F)C3)s1 (centres undefined)
bacterial growth OD600 (polymyxin B 0.75 µg/mL): 0.605
